{
  "source": "PubChem BioAssay AID493014",
  "about": "(National Center for Advancing Translational Sciences (NCATS), 2011)",
  "note": "Values joined by “and” are separate entries in the source; they are usually repeats but may differ in a detail not shown here. Equal entries are not always repeated. Among all 340,000 compounds or so, about 170 (0.05%) were called active. Inconclusive results, whose numbers are uncertain, are shown with a selection of clear calls. Calls follow the shape of the dose curve; as a rule, active = well fitted inhibition curve with a large enough effect in the signal ratio, with a control signal flat (not every such curve was filed as active); inconclusive = small, poorly fitted or top-dose-only effect, or effect the other way, or a change in a side signal; inactive = flat fitted curve, though single readings scatter; the % refers to the signal ratio. Potencies beside an inconclusive call are fits to weak or partial responses and may not hold up. Potency is read from the fitted curve at half-maximal effect.",
  "data": [
    {"assay": "qHTS Assay to Find Inhibitors of Chronic Active B-Cell Receptor Signaling;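 as to activity change, negative = inhibition: plate controls were basal doxycycline-induced cells for no effect and cells given 10 µM MG132 for full effect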", "settings": "ABC-DLBCL IkBa-CBG/CBR reporter, luminescence ratio (green luciferase fused to IkBa over red control in TMD8 lymphoma cells), 4 h; activity change, negative = inhibition: at 46.1 µM (top of the series) unless noted", "outline": "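Cell line TMD8 (human ABC DLBCL), stably expressing tet-inducible CBG68-IkBa fusion and CBR; IMDM/0.5% FBS; cpd up to 46 uM; dox induction, 4 h, 37C/5% CO2; dual luminescence; green/red ratio; MG132 control.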", "values": [
      {"smiles": "COc1ccc(CNCCC2(C(C)C)CCOC(C)(C)C2)cc1", "note": "(centres undefined)", "Potency": "inconclusive: 6.31 µM [falling, single point]"},
      {"smiles": "CNc1nc(-c2ccc(Cl)cc2)cs1", "activity change, negative = inhibition": "inconclusive: 1.75%"},
      {"smiles": "CCc1c(C)nc2cc(-c3ccc(OC)c(OC)c3)nn2c1N1CCC(C)CC1", "activity change, negative = inhibition": "inconclusive: 18.6%"},
      {"smiles": "COc1ccc(N2C(=O)C3CCCN3C2c2ccc(C)o2)cc1", "note": "(centres undefined)", "activity change, negative = inhibition": "inactive"},
      {"smiles": "Cc1ccc(NC(=O)/C=C/c2cccs2)c([N+](=O)[O-])c1", "Potency": "inconclusive: 15.8 µM [falling, single point]"},
      {"smiles": "CC1=C(C)CC2C(=O)N(Cc3ccccc3)C(=O)C2C1", "note": "(centres undefined)", "activity change, negative = inhibition": "inconclusive: -3.15%"},
      {"smiles": "Cn1c(SCC(=O)c2ccccc2)nnc1-c1ccccn1", "Potency": "inconclusive: 35.5 µM [falling, single point]"},
      {"smiles": "COc1ccc(-n2nc3c(c2NC(=O)COc2ccccc2)CS(=O)C3)cc1", "note": "(centres undefined)", "activity change, negative = inhibition": "inconclusive: -0.0158%"},
      {"smiles": "Fc1ccc(N/N=C/C=C/c2ccccc2)c(F)c1", "activity change, negative = inhibition": "inconclusive: 5.62%"},
      {"smiles": "CCOc1ccccc1C1CC(=O)Nc2cc(C)c(C)cc21", "note": "(centres undefined)", "activity change, negative = inhibition": "inactive"},
      {"smiles": "CCC1(C(=O)c2ccccc2)C(c2cccc([N+](=O)[O-])c2)C1(C(=O)OC)C(=O)OC", "note": "(centres undefined)", "activity change, negative = inhibition": "inconclusive: -0.321%"},
      {"smiles": "CCCC(=O)Nc1nnc(Cc2ccccc2)s1", "activity change, negative = inhibition": "inconclusive: 5.01%"},
      {"smiles": "O=C(c1ccccc1F)N(Cc1ccc2c(c1)OCO2)Cc1cc2cc3c(cc2n2nnnc12)OCO3", "activity change, negative = inhibition": "inconclusive: 7.76%"},
      {"smiles": "O=C1N=C(N2CCOCC2)S/C1=C\\C=C/c1ccccc1", "Potency": "inconclusive: 31.6 µM [rising, single point]"},
      {"smiles": "O=C(/C=C/c1cccs1)Nc1nncs1", "Potency": "inconclusive: 35.5 µM [falling, single point]"},
      {"smiles": "O=C1[C@@H](Oc2ccccc2)[C@@H](c2cnc3ccccc3c2)N1c1ccccc1", "Potency": "inconclusive: 16.4 µM [falling, single point]"},
      {"smiles": "CCc1ccc(N2CCN(C(=O)c3ccc4c(c3)OCO4)CC2)cc1", "activity change, negative = inhibition": "inconclusive: 4.78%"},
      {"smiles": "COc1cccc(N2CCN(C(=O)c3ccc(CS(=O)c4ccc(Cl)cc4)o3)CC2)c1", "note": "(centres undefined)", "Potency": "inconclusive: 17.8 µM [falling, partial curve, poor fit]"},
      {"smiles": "CC(=O)c1ccc(N2C(=O)N(Cc3cc(C)ccc3C)c3ccccc3S2(=O)=O)cc1", "activity change, negative = inhibition": "inactive"},
      {"smiles": "Cc1c(Cc2ccccc2)c(=O)n2c([nH]c3ccccc32)c1C#N", "activity change, negative = inhibition": "inconclusive: 16.8%"},
      {"smiles": "COc1ccc(C(=O)NCCC(=O)NCc2cc(=O)n(C)c(=O)n2C)cc1", "activity change, negative = inhibition": "inactive"},
      {"smiles": "Cc1cc(C)cc(CC2CC(=O)N(c3nc(C)cc(C)n3)C2=O)c1", "note": "(centres undefined)", "activity change, negative = inhibition": "inconclusive: -2.04%"},
      {"smiles": "OC(COCc1ccco1)CN1CCN(c2ccccc2)CC1", "note": "(centres undefined)", "activity change, negative = inhibition": "inconclusive: 1.34%"},
      {"smiles": "COc1ccc(OC)c(NC(=O)CNC(=O)c2ccc([N+](=O)[O-])cc2)c1", "activity change, negative = inhibition": "inconclusive: 3.07%"},
      {"smiles": "COc1ccc2c(c1OC)C(=O)N(c1cccc(C)c1)C2", "activity change, negative = inhibition": "inactive"},
      {"smiles": "COc1cc(C(=O)NCC2CCCO2)ccc1OCc1c(C)noc1C", "note": "(centres undefined)", "activity change, negative = inhibition": "inconclusive: 0.21%"},
      {"smiles": "Cc1ccc(CCNC(=O)c2ccc(CS(=O)(=O)Cc3ccccc3F)o2)cc1", "activity change, negative = inhibition": "inactive"},
      {"smiles": "COc1ccccc1NC(=O)Nc1nc(CC(=O)Nc2ccccc2F)cs1", "activity change, negative = inhibition": "inconclusive: 9.61%"},
      {"smiles": "CCn1c(SCC(N)=O)nc2sc3c(c2c1=O)CCN(C)C3", "activity change, negative = inhibition": "inactive"},
      {"smiles": "COC(=O)[C@@H]1CCCN1Cc1nc(Cc2ccc(OC)c(OC)c2)no1", "activity change, negative = inhibition": "inconclusive: 16.5%"},
      {"smiles": "Cc1ccc(NC(=O)Nc2cnc3ccccc3c2)cc1", "activity change, negative = inhibition": "inconclusive: -1%"},
      {"smiles": "N=C1S/C(=C\\c2ccc(-c3ccccc3C(=O)O)o2)C(=O)N1c1ccc2c(c1)OCO2", "activity change, negative = inhibition": "inconclusive: 12.4%"},
      {"smiles": "Brc1ccc(CNc2cc3c(cc2Br)OCCO3)cc1", "activity change, negative = inhibition": "inconclusive: 3.15%"},
      {"smiles": "CCOC(=O)c1c(N2C(=O)CC(Sc3ccccc3C(=O)O)C2=O)sc2c1CCCC2", "note": "(centres undefined)", "activity change, negative = inhibition": "inconclusive: 9.27%"},
      {"smiles": "Cc1ccc(-c2csc3nnc(SCC(=O)N4CCN(Cc5ccccc5)CC4)n23)cc1", "activity change, negative = inhibition": "inactive"},
      {"smiles": "COc1ccc(CCN2C(=O)CC(NNc3ccc([N+](=O)[O-])cc3)C2=O)cc1OC", "note": "(centres undefined)", "activity change, negative = inhibition": "inactive"},
      {"smiles": "O=C(Nc1nnc(COc2ccccc2)s1)C1CCN(S(=O)(=O)c2ccc(Cl)cc2)CC1", "activity change, negative = inhibition": "inconclusive: 2.38%"},
      {"smiles": "ClC1(Cl)CC1CSc1nc2ccccc2[nH]1", "note": "(centres undefined)", "activity change, negative = inhibition": "inconclusive: 2.88%"},
      {"smiles": "CC(C)(C)c1cc(=O)[nH]c(SCc2ccccc2)n1", "Potency": "inconclusive: 17.8 µM [falling, partial curve, poor fit]"},
      {"smiles": "COC(=O)c1cc(NC(=O)c2cc3ccccc3o2)cc(C(=O)OC)c1", "activity change, negative = inhibition": "inconclusive: 22.9%"},
      {"smiles": "Cc1cc(NC(=O)CCC(=O)N(CC(=O)NCC2CCCO2)c2cccc(F)c2)no1", "note": "(centres undefined)", "activity change, negative = inhibition": "inactive"},
      {"smiles": "COc1ccc(C2=C(CN(C)C)C(c3ccccc3)c3ccccc3O2)cc1", "note": "(centres undefined)", "activity change, negative = inhibition": "inconclusive: -1.02% and inconclusive: 10.8%"},
      {"smiles": "CC(C)[C@H](NC(=O)c1cccc(S(=O)(=O)N2CCOCC2)c1)C(=O)Nc1nc2ccccc2s1", "activity change, negative = inhibition": "inactive"},
      {"smiles": "Nc1nc(N)nc(-c2cccc(Cl)c2Cl)n1", "activity change, negative = inhibition": "inconclusive: -2.22%"},
      {"smiles": "Cc1ccc(CNS(=O)(=O)c2ccc3c(c2)NC(=O)CS3)cc1", "activity change, negative = inhibition": "inactive"},
      {"smiles": "O=C(Cc1ccc([N+](=O)[O-])cc1)N/N=C/c1ccc([N+](=O)[O-])o1", "activity change, negative = inhibition": "inactive"},
      {"smiles": "Cc1ccc(C(=O)N2CCc3ccccc32)cc1NC(=O)c1ccco1", "Potency": "inconclusive: 7.08 µM [falling, full curve, poor fit]"},
      {"smiles": "O=C(Nc1nc(-c2ccccn2)cs1)c1ccc(Cl)s1", "activity change, negative = inhibition": "inactive"},
      {"smiles": "N#Cc1ccc2ccn(CC(=O)NCc3ccccc3)c2c1", "activity change, negative = inhibition": "inactive"},
      {"smiles": "Cn1c(=O)c2sccc2n(Cc2cccc(Br)c2)c1=O", "activity change, negative = inhibition": "inactive"},
      {"smiles": "Fc1ccc(F)c(C2=NNC(=Nc3ccccc3F)SC2)c1", "Potency": "inconclusive: 20.6 µM [falling, single point]"},
      {"smiles": "COc1ccc(C2C(=O)N(C3CCC(C)CC3)CC(=O)N2CCC2=CCCCC2)cc1OC", "note": "(centres undefined)", "activity change, negative = inhibition": "inactive"},
      {"smiles": "CC(C)OC(=O)n1c(=S)oc2ccccc21", "Potency": "inconclusive: 29.1 µM [falling, single point]"},
      {"smiles": "Cc1ccc(NC(=O)C[n+]2ccn(C3=C([O-])c4ccccc4C3=O)c2)cc1", "activity change, negative = inhibition": "inactive"}
    ]}
  ]
}
